In PubChem BioAssay AID540256 (National Center for Advancing Translational Sciences (NCATS), 2011):
The campaign covered roughly 300,000 compounds. About 3,700 (1.2%) were called active. The shares of active, inactive and inconclusive entries below differ from those in the screen. Calls come from the whole dose curve; tested in HEK293 cells. Potencies of inconclusive entries are doubtful fits and often do not repeat.

experiment: qHTS for Inhibitors of binding or entry into cells for Lassa Virus; conditions: Lassa virus pseudotype entry inhibition, cell reporter; activity change, negative = inhibition: at 37.9 µM (top of the series) unless noted; note: nearly all actives have a fitted effect of over 50% in size
% is set by controls: 0 for no effect and ±100 for the full control effect; potency is the fitted concentration of half-maximal effect.

Compound | activity change, negative = inhibition | Potency
COc1cccc(NC(=O)CCC(=O)Nc2cccc(OC)c2)c1 | inactive: -1.36% | 
CCn1cc(/C=N/NC(=O)c2cc3c(ccc4ccccc43)o2)c2ccccc21 | inactive: -26.2% | 
CC1=CC(C)(C)Nc2ccc(OC(=O)CN3C(=O)CCC3=O)cc21 |  | inconclusive: 32.6 µM [inhibitor, single point]
Cc1cc(C(C)(C)C)cc(C)c1CCNC(=O)c1c(C)noc1C |  | inconclusive: 11.2 µM [inhibitor, partial curve, poor fit]
CCOc1ccccc1NC(=O)CSC1=Nc2ccccc2C2=NC(CC(=O)NCc3ccc4c(c3)OCO4)C(=O)N12 (stereo unspecified) |  | inconclusive: 35.5 µM [inhibitor, single point]
Oc1cccc(/C=C/c2ccc3cccc(O)c3n2)c1 |  | inconclusive: 35.5 µM [inhibitor, single point]
CCCCCCc1nc2ccccc2c(=O)n1NC(=O)c1c(O)c2c(n(CC(C)C)c1=O)CCCC2 |  | inconclusive: 0.231 µM [activator, single point]
Cc1ccc(NS(=O)(=O)c2ccc(-c3cc(C)no3)cc2)c(C)c1 |  | inconclusive: 25.1 µM [inhibitor, single point]
O=C(c1ccc2c(c1)N(Cc1cccc(Cl)c1)C(=O)c1ccccc1S2(=O)=O)N1CCN(Cc2ccccc2)CC1 |  | inconclusive: 7.08 µM [inhibitor, partial curve, poor fit]
CN1CC(=O)N(CC(=O)Nc2ccc(OCc3ccccc3)cc2)C1=O | inactive: 23.3% | 
COc1ccc(CNC(=O)CSCc2ccc(C)cc2)c(OC)c1 | inactive: 6.77% [at 46.1 µM] | 
CNC(=O)c1ccc(-c2sc3nc(N4CCOCC4)c4c(c3c2N)CC(C)(C)OC4)o1 |  | inconclusive: 0.0052 µM [inhibitor, full curve, poor fit]
O=C(COC(=O)/C=C/c1ccccc1)NC1CCCCCC1 |  | inconclusive: 6.31 µM [inhibitor, full curve]
CCCc1ncc(CN2CCCCC2C(=O)Nc2ccc(Oc3ccccc3)nc2)cn1 (stereo unspecified) | inactive: -1.27% | 
C/C(=N\NC(=O)c1c(Cl)c(C)nn1C)c1cccc(NC(=O)C2CCCC2)c1 |  | inconclusive: 0.355 µM [inhibitor, full curve, poor fit]
N#Cc1c(-c2ccc(F)cc2)c2c([nH]c1=O)-c1ccccc1OC2 |  | inconclusive: 3.98 µM [inhibitor, single point]
N#C/C(=C/Nc1ccccc1)c1ccsc1 | inactive: -13.3% | 
CC(C)(C)NC(=O)CSc1nc2[nH]ncc2c(=O)[nH]1 |  | inconclusive: 2.82 µM [inhibitor, single point]
O=C(COc1ccc(S(=O)(=O)Nc2ccccc2)cc1)NCc1ccncc1 |  | active: 2.59 µM
O=C(CSc1nncn1-c1ccccc1F)NC1CC1 |  | inconclusive: 14.1 µM [activator, partial curve, poor fit]
O=C(NCC(c1ccc2c(c1)OCO2)N1CCOCC1)C(=O)Nc1ccc(Cl)cc1 (stereo unspecified) | inactive: 2.81% [at 46.1 µM] | 
O=C(c1ccc(Br)cc1)c1cc(-c2ccccn2)c(N2CCOCC2)s1 | inactive: -28.8% | 

Compound | activity change, negative = inhibition | Potency
O=C(CSc1nnc(COc2ccccc2)n1-c1ccccc1)c1cccs1 |  | inconclusive: 35.5 µM [inhibitor, single point]
CCc1cc(C(c2ccccn2)N2CCN(C)CC2)c(NC(=O)c2ccccc2)s1 (stereo unspecified) |  | inconclusive: 0.708 µM [activator, single point]
CS(=O)(=O)N(CC(=O)N1CCCCCC1)c1ccccc1 |  | inconclusive: 0.316 µM [activator, partial curve, poor fit]
CC(NC(=O)c1cc(=O)[nH]c2ccccc12)c1ccccc1 (stereo unspecified) |  | inconclusive: 0.891 µM [inhibitor, full curve, poor fit]
CCCN(CCC)CCCNC(=O)c1sc2nc3n(c(=O)c2c1C)CCC3 | inactive: 7.17% [at 46.1 µM] | 
Nc1c(C(=O)NCc2ccco2)c2nc3ccccc3nc2n1CCN1CCOCC1 | inactive: -4.55% | 
COc1ccc(/C=C/C(=O)NC(=S)NCc2ccccc2)cc1OC |  | inconclusive: 3.98 µM [inhibitor, partial curve, poor fit]
Cn1nnnc1SCc1csc(Nc2ccccc2)n1 | inactive: 0.0159% | 
COc1cccc(C2c3cc4c(cc3OC(N3CCOCC3)C2C)OCO4)c1O (stereo unspecified) |  | inconclusive: 7.94 µM [inhibitor, partial curve]
COc1ccc(CC(=O)OC(C)CN2CCCC2)cc1 (stereo unspecified) | inactive: 1.66% | 
Cc1cc(C(=O)Nc2cc(S(C)(=O)=O)ccc2Cl)c(C)o1 |  | inconclusive: 3.55 µM [activator, single point]
CN(Cc1ccccc1)c1nc2c(c(=O)[nH]c(=O)n2C)n1CCCc1ccccc1 |  | inconclusive: 18.3 µM [inhibitor, single point]
COC(=O)c1ccc2c(=O)n(Cc3ccco3)c(SCC(=O)Nc3ccc(C)c(Cl)c3)nc2c1 |  | inconclusive: 20.6 µM [inhibitor, partial curve, poor fit]
CCOC(=O)c1ccc(NC(=O)CC2C(=O)N(c3ccc(F)cc3)C(=O)N2CCC(C)C)cc1 (stereo unspecified) |  | inconclusive: 9.2 µM [inhibitor, partial curve]
CCc1ccc(NC(=O)c2ccc(F)c(S(=O)(=O)N3CCc4ccccc4C3)c2)cc1 |  | inconclusive: 5.01 µM [inhibitor, full curve, poor fit]
COc1ccccc1C(=O)NCCC(=O)N1CC(C)OC(C)C1 (stereo unspecified) | inactive: -2.76% | 
CN1CCN(S(=O)(=O)c2cccc(C(=O)N(Cc3ccccc3)c3ccccc3)c2)CC1 | inactive: 12.9% | 
CC(=O)N1CCc2cc(S(=O)(=O)NCCC(=O)Nc3cccc(C)c3)ccc21 |  | inconclusive: 7.08 µM [activator, partial curve, poor fit]
COc1ccc(-c2nnc(SCC(=O)NCc3cccs3)n2C(C)C)cc1 | inactive: -6.08% | 
Cc1ccc(S(=O)(=O)Nc2ccc3c(c2)CCCN3C(=O)c2cccs2)cc1C |  | inconclusive: 22.4 µM [inhibitor, single point]
O=C(N/N=C/c1ccccc1)c1[nH]c2ccc(Br)cc2c1-c1ccccc1 |  | inconclusive: 0.891 µM [inhibitor, full curve, poor fit]
CCc1ccc(CNC(=O)c2ccc(-n3c(C)cc4c3CCC(C)C4)cc2)cc1 (stereo unspecified) |  | inconclusive: 35.5 µM [inhibitor, single point]

Single records (already shown):
Cc1cc(C(=O)Nc2cc(S(C)(=O)=O)ccc2Cl)c(C)o1 in the list: Potency: inconclusive: 3.55 µM [activator, single point]
COC(=O)c1ccc2c(=O)n(Cc3ccco3)c(SCC(=O)Nc3ccc(C)c(Cl)c3)nc2c1 in the list: Potency: inconclusive: 20.6 µM [inhibitor, partial curve, poor fit]

Carrying on:

Compound | activity change, negative = inhibition | Potency
COc1ccc(NS(=O)(=O)c2ccc(NC(=O)c3ccc(CN4CCOCC4)cc3)cc2)cc1 |  | inconclusive: 3.55 µM [inhibitor, partial curve, poor fit]
O=C(COc1ccc(S(=O)(=O)N2CCOCC2)cc1)Nc1cccc([N+](=O)[O-])c1 |  | inconclusive: 10 µM [inhibitor, partial curve, poor fit]
COc1ccc(CCNC2=NCCS2)cc1 |  | inconclusive: 11.2 µM [activator, single point]
O=C(COc1ccc(Cl)cc1Cl)NCCSc1ccc(Cl)cc1 |  | inconclusive: 20 µM [inhibitor, partial curve, poor fit]
Cn1c(SCc2cccc(C#N)c2)nc2ccccc2c1=O |  | inconclusive: 11.2 µM [inhibitor, partial curve, poor fit]
O=C(Nc1ccc2c(c1)OCCO2)c1ccc(Cl)c(S(=O)(=O)N2CCCCC2)c1 |  | active: 20.6 µM
CC(C)(C)NC(=O)NC(=O)CN1CCN(S(=O)(=O)c2ccc3c(c2)CCCC3)CC1 |  | inconclusive: 17.8 µM [inhibitor, single point]
COc1cccc(/C=C2/Oc3ccccc3N(CC(=O)NCC3CCCO3)C2=O)c1 (stereo unspecified) |  | inconclusive: 7.08 µM [inhibitor, partial curve, poor fit]
CCOc1ccc(CN(C)CC(=O)Nc2cccc(S(=O)(=O)N(C)c3ccccc3)c2)cc1 |  | inconclusive: 22.4 µM [inhibitor, single point]
Nc1cccc(CCc2nc3cc4ccccc4cc3[nH]2)c1 |  | inconclusive: 7.31 µM [inhibitor, partial curve, poor fit]
Cc1ccc(CNC(=O)C2CCC(=O)N(Cc3ccc(Cl)cc3)C2)cc1F (stereo unspecified) |  | inconclusive: 7.08 µM [inhibitor, partial curve, poor fit]
CC(C)CCNC(=O)NC(=O)COC(=O)C1CCN(S(=O)(=O)c2ccccc2F)CC1 | inactive: 6.25% | 
COc1ccc(-c2cc(C(=O)Nc3ccc(C)c(N)c3)c3ccccc3n2)cc1 |  | inconclusive: 14.1 µM [inhibitor, single point]
Cc1cc(C)c(C#N)c(N2CCN(CCOc3ccc(Cl)cc3)CC2)n1 |  | inconclusive: 29.1 µM [inhibitor, single point]
COc1ccc(/C=N/NC(=O)c2cc(-c3ccccc3OC(C)C)nc3ccccc23)cc1CN1CCOCC1 |  | inconclusive: 29.1 µM [inhibitor, single point]
Nc1ccc(C(=O)N/N=C2\CCCc3c2[nH]c2ccccc32)cc1 | inactive: -1.1% | 
COCCOC(=O)c1[nH]c2c(c1C)C(=O)CC(c1ccccc1)C2 (stereo unspecified) |  | inconclusive: 1.26 µM [inhibitor, full curve, poor fit]
Cc1cccc(N/C=C/c2onc(C)c2[N+](=O)[O-])c1 |  | inconclusive: 0.126 µM [activator, full curve, poor fit]
CC(=O)c1cc(C#N)c(SCC(=O)C(C)(C)C)nc1C |  | inconclusive: 0.116 µM [activator, full curve, poor fit]
O=C(NCCc1ccco1)C(=O)NCC1OCCCN1S(=O)(=O)c1ccccc1 (stereo unspecified) | inactive: -0.158% | 
Cc1ccc(OCc2cc(C(=O)N(C)CCn3ccnc3C)no2)cc1C | inactive: -3.12% | 
COc1ccc(/C=C/C(=O)OCC(=O)Nc2ccc(Cl)cn2)cc1 | inactive: -30.6% | 

Reprinted at random: three entries already listed, in no set order.
Compound | activity change, negative = inhibition | Potency
O=C(Nc1ccc2c(c1)OCCO2)c1ccc(Cl)c(S(=O)(=O)N2CCCCC2)c1 |  | active: 20.6 µM
CC(C)(C)NC(=O)NC(=O)CN1CCN(S(=O)(=O)c2ccc3c(c2)CCCC3)CC1 |  | inconclusive: 17.8 µM [inhibitor, single point]
Cc1cccc(N/C=C/c2onc(C)c2[N+](=O)[O-])c1 |  | inconclusive: 0.126 µM [activator, full curve, poor fit]
